Laboratory results taken from the supplement of paper PMC12067093, “Discovery and optimisation of a covalent ligand for TRIM25 and its application to targeted protein ubiquitination” (Chemical Science, 2025).
The other results are listed elsewhere or left out.

By UniProt entry, the sequences of proteins in these tests, tags left out. Where a name states a change or a piece, a line headed by the entry shows the natural chain unless it says otherwise.
UniProt Q8TDW0: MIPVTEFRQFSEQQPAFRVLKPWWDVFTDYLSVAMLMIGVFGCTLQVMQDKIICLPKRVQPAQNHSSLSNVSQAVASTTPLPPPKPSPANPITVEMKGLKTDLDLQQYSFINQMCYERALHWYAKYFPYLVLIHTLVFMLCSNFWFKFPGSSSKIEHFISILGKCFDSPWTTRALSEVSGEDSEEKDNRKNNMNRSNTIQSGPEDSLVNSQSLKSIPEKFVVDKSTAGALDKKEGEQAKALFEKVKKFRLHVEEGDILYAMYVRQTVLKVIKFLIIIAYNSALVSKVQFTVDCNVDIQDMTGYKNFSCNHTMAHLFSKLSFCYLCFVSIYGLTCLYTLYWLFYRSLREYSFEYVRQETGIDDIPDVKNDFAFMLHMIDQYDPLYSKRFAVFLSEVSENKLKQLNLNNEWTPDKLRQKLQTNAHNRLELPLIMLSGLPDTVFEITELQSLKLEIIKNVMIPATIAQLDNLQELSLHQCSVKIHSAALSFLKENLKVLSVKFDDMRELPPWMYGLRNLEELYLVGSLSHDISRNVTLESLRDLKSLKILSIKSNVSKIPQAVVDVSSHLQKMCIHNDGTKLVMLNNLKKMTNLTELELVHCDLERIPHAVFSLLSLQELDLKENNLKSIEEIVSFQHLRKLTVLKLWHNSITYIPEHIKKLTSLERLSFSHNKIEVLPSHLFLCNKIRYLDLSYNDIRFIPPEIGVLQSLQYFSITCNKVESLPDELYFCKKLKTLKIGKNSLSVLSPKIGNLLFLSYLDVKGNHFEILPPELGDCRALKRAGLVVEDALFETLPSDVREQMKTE
UniProt P09382, whole entry, looked up: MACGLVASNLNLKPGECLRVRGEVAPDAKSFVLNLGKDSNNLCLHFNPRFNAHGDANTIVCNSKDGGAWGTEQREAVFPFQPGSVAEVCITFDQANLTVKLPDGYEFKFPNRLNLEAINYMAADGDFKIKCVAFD
UniProt Q96II8: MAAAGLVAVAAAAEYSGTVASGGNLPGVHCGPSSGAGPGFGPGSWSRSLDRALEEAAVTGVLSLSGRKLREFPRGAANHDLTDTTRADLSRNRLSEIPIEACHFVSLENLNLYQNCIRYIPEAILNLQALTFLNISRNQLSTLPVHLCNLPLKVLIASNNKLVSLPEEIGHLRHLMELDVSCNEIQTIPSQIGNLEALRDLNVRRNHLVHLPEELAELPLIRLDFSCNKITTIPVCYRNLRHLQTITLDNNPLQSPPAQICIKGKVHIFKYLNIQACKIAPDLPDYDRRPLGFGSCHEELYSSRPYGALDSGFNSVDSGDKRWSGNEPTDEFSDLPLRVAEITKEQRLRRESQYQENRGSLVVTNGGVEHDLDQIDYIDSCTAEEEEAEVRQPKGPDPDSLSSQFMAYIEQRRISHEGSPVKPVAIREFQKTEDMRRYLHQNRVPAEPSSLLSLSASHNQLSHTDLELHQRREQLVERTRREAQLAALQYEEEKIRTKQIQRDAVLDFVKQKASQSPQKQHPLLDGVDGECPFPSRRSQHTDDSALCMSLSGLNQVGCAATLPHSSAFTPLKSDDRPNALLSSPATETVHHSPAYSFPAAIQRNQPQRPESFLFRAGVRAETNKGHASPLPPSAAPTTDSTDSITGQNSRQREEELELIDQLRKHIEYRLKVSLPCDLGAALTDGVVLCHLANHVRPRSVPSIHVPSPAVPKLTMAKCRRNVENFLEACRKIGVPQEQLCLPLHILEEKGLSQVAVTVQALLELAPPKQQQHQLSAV
UniProt Q93052: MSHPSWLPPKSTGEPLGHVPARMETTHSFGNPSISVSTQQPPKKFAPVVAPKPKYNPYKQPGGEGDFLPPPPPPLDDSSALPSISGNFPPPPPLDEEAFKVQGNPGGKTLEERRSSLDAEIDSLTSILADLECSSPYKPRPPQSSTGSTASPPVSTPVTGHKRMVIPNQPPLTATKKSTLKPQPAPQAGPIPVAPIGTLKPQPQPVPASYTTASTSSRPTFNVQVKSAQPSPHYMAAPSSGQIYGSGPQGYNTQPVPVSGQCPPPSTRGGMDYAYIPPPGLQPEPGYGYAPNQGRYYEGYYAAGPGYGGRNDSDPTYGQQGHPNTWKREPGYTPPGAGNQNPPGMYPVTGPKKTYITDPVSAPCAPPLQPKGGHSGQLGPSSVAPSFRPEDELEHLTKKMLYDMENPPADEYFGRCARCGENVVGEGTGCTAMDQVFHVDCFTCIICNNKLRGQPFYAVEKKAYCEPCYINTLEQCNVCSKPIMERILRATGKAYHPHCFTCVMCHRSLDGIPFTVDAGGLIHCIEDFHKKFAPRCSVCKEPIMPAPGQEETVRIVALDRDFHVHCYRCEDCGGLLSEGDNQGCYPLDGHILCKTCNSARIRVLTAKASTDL
UniProt P49257: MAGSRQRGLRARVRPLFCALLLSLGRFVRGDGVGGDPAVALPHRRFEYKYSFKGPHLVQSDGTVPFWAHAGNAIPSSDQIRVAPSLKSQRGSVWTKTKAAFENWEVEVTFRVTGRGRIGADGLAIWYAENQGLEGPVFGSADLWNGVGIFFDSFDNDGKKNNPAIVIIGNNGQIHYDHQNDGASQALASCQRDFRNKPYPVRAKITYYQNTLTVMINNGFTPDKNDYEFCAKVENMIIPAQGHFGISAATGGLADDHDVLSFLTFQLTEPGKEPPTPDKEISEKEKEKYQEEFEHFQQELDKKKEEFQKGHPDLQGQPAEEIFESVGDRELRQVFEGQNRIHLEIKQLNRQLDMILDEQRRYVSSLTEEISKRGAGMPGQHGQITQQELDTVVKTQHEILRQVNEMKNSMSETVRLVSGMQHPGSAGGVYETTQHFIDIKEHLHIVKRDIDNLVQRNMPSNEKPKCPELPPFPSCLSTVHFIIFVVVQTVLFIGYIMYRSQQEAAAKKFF
UniProt Q96CX6, whole entry, looked up: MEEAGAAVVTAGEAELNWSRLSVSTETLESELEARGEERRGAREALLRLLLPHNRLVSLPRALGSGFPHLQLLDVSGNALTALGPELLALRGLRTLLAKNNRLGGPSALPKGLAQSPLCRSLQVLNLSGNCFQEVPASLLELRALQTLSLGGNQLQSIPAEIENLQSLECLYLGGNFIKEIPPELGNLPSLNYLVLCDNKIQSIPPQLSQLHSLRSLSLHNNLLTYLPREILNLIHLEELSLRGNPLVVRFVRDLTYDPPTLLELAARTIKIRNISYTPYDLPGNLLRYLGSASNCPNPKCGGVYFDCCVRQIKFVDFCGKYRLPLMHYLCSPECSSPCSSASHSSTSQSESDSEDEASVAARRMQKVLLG
UniProt Q32MZ4: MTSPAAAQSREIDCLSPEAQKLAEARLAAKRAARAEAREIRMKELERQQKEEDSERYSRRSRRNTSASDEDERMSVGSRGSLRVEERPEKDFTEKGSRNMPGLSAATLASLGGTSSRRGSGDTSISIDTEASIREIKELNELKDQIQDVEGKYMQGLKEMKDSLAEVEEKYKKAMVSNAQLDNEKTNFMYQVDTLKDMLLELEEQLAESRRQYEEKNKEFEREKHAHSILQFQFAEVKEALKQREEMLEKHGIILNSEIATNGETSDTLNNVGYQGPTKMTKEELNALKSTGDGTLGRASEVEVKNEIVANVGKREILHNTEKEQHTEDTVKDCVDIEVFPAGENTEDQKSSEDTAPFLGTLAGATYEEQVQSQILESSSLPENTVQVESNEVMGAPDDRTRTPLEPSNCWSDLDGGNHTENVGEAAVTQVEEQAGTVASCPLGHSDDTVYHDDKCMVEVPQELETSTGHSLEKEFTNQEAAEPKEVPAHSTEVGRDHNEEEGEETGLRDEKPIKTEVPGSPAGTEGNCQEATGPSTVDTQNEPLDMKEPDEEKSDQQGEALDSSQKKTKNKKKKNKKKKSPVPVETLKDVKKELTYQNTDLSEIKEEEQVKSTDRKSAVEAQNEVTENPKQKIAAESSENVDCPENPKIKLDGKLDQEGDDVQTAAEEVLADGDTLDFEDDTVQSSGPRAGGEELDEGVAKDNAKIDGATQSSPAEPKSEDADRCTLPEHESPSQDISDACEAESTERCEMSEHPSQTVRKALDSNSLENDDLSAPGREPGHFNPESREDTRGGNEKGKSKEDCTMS
UniProt Q7L5N7: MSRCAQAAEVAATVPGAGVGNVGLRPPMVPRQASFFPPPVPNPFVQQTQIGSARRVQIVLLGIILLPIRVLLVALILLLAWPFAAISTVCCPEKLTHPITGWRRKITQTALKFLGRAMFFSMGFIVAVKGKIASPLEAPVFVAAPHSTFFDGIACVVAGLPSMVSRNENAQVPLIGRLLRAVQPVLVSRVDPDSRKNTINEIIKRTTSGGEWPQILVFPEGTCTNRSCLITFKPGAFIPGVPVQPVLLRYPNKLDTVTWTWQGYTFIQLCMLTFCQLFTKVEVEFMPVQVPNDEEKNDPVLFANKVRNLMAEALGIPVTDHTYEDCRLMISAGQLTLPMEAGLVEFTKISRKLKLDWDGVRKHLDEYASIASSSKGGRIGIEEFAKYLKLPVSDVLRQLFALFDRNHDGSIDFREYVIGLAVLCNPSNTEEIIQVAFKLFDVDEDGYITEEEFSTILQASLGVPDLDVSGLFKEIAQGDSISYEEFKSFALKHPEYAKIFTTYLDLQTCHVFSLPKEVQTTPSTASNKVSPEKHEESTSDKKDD
UniProt Q8WWI1: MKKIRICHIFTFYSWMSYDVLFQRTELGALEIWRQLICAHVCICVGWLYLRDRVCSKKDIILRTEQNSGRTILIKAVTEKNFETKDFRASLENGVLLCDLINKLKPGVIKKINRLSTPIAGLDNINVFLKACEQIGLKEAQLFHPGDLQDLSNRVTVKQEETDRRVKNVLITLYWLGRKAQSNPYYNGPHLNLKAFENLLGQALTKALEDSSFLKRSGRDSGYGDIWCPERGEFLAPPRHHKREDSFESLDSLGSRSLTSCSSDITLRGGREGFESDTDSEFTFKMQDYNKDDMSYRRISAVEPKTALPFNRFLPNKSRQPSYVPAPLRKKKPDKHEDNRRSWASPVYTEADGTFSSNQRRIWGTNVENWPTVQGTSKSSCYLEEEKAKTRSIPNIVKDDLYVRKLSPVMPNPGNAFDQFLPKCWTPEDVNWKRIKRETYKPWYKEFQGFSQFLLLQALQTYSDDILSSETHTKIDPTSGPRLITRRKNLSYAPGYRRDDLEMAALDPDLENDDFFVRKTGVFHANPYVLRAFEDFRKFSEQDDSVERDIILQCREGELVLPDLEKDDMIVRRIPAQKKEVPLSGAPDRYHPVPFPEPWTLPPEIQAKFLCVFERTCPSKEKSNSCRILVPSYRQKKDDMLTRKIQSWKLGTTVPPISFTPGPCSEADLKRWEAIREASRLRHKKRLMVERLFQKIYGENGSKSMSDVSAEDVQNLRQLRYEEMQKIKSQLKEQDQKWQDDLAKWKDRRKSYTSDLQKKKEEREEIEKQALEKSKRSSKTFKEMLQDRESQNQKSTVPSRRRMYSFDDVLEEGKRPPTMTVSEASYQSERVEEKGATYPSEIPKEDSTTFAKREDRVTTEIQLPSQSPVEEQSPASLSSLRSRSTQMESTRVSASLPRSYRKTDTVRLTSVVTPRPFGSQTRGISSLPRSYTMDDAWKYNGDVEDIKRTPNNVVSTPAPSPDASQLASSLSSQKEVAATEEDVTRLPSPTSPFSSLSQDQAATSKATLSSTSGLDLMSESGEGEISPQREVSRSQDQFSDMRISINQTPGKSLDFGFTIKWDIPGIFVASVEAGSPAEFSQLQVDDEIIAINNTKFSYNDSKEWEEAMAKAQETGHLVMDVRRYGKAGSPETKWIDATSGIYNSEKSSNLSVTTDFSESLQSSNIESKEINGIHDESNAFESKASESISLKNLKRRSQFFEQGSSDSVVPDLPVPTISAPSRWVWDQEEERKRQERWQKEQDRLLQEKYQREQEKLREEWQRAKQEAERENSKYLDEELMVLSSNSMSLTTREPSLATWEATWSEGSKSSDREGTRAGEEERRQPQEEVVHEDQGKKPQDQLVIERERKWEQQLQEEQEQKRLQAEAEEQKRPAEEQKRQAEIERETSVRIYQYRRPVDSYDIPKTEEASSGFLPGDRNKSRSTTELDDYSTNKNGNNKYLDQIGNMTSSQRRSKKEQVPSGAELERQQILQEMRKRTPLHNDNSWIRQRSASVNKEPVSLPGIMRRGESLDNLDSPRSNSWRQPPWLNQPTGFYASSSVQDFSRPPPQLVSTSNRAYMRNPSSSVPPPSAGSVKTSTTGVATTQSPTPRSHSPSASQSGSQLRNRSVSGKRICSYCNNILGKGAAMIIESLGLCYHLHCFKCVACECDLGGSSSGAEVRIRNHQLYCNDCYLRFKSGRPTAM
UniProt P48059, whole entry, looked up: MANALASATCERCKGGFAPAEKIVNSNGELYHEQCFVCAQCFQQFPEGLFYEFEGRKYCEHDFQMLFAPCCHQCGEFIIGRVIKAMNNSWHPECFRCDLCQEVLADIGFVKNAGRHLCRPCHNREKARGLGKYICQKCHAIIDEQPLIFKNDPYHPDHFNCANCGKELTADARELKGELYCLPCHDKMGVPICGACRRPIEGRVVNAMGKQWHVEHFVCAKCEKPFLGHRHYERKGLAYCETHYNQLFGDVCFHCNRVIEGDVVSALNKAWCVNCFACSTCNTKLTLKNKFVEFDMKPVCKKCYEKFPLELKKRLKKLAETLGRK

Each target was assayed with CC1Cc2ccccc2N1C(=O)C1CCCN(C1)C(=O)CCl (mixture of isomers) [TRIM25 ligand 11 (diastereomer mixture)] (assay: probe-labelled cysteine peptide fold change vs DMSO (competition) (log2 fold change); higher = less target engagement (more negative = stronger competition)). Details: 50 µM; THP-1; incubation time: 4 h.
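Note: competitive chemoproteomic profiling in live THP-1 cells with an iodoacetamide desthiobiotin (IA-DTB) probe, comparing probe-labelled peptide intensities in compound-treated cells against DMSO-treated controls.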

Target	probe-labelled cysteine peptide fold change
LRRC8C_Q8TDW0_599_MTNLTELELVHCDLER (UniProt Q8TDW0)	0.0824
LENG8_Q96PV6_600_EKQDYAFACEQMK (UniProt Q96PV6)	0.0118
LIMA1_Q9UHB6_393_ETCVECQK (UniProt Q9UHB6)	0.0997
LRRC41_Q15345_297_CAAALMASR (UniProt Q15345)	-0.172
LDLR_P01130_377+379_CQCEEGFQLDPHTK (UniProt P01130)	-0.0881
LRRC8A_Q8IWT6_768+776_GNRLECLPVELGECPLLK (UniProt Q8IWT6)	0.0257
LGALS1_P09382_61_FNAHGDANTIVCNSK (UniProt P09382)	-0.0727
LRCH1_Q9Y2L9_421_AEDCEELLR (UniProt Q9Y2L9)	0.0131
LMNB2_Q03252_212_CQSLQEELDFR (UniProt Q03252)	0.184
LRRC8C_Q8TDW0_682_IEVLPSHLFLCNK (UniProt Q8TDW0)	0.123
LRPPRC_P42704_113_VFNDTCR (UniProt P42704)	0.0708
LGALS3_P17931_173_VIVCNTK (UniProt P17931)	0.104
LRRC40_Q9H9A6_264_FLPEFPSCSLLK (UniProt Q9H9A6)	-0.114
LRRC14_Q15048_71_ELVHTWPFPLLSFQQLLQECAHCSR (UniProt Q15048)	0.155
LIMK1_P53667_84_YGESCHGCSEQITK (UniProt P53667)	-0.212
LRCH3_Q96II8_689_VSLPCDLGAALTDGVVLCHLANHVRPR (UniProt Q96II8)	0.0314
LRPPRC_P42704_722_AKYESDMVTGGYAALINLCCR (UniProt P42704)	-0.0584
LPP_Q93052_499+502_AYHPHCFTCVMCHR (UniProt Q93052)	0.162

Target	probe-labelled cysteine peptide fold change
LMAN1_P49257_230_NDYEFCAK (UniProt P49257)	0.345
LRCH3_Q96II8_102_LSEIPIEACHFVSLENLNLYQNCIR (UniProt Q96II8)	0.0515
LRRC58_Q96CX6_119_GLAQSPLCR (UniProt Q96CX6)	-0.219
LRRFIP1_Q32MZ4_14_EIDCLSPEAQK (UniProt Q32MZ4)	-0.205
LPCAT2_Q7L5N7_326_NLMAEALGIPVTDHTYEDCR (UniProt Q7L5N7)	0.185
LMO7_Q8WWI1_228_DSGYGDIWCPER (UniProt Q8WWI1)	-0.215
LIMS1_P48059_193+196_MGVPICGACR (UniProt P48059)	-0.114
LILRB4_Q8NHJ6_144_SVTLLCQSR (UniProt Q8NHJ6)	0.0442
LRPPRC_P42704_1043_DILIACR (UniProt P42704)	0.0957
LRBA_P50851_2740_TLEGPENCLKPK (UniProt P50851)	-0.0266
LPP_Q93052_524_SLDGIPFTVDAGGLIHCIEDFHK (UniProt Q93052)	-0.0913
LIG4_P49917_510_VGSGCTMK (UniProt P49917)	-0.0366
LEMD2_Q8NC56_355_VVCLESAHPR (UniProt Q8NC56)	-0.113
LGALS9_O00182_102_GMPFDLCFLVQSSDFK (UniProt O00182)	0.0536
LRRC47_Q8N1G4_224_TLDLSNNQLSEIPAELADCPK (UniProt Q8N1G4)	0.159
LPXN_O60711_340_CISAMGYK (UniProt O60711)	-0.00859
LIG1_P18858_895_QPEQATTSAQVACLYR (UniProt P18858)	0.163
LSG1_Q9H089_547_LLYCHPPPGRDPVTFQHQHQR (UniProt Q9H089)	-0.257

Rewritten as comma-separated lines: part of the list above
Target,probe-labelled cysteine peptide fold change
LRCH3_Q96II8_689_VSLPCDLGAALTDGVVLCHLANHVRPR (UniProt Q96II8),0.0314
LRPPRC_P42704_722_AKYESDMVTGGYAALINLCCR (UniProt P42704),-0.0584
LPP_Q93052_499+502_AYHPHCFTCVMCHR (UniProt Q93052),0.162
LMAN1_P49257_230_NDYEFCAK (UniProt P49257),0.345
LRCH3_Q96II8_102_LSEIPIEACHFVSLENLNLYQNCIR (UniProt Q96II8),0.0515
LRRC58_Q96CX6_119_GLAQSPLCR (UniProt Q96CX6),-0.219
LRRFIP1_Q32MZ4_14_EIDCLSPEAQK (UniProt Q32MZ4),-0.205
LPCAT2_Q7L5N7_326_NLMAEALGIPVTDHTYEDCR (UniProt Q7L5N7),0.185
LMO7_Q8WWI1_228_DSGYGDIWCPER (UniProt Q8WWI1),-0.215
LIMS1_P48059_193+196_MGVPICGACR (UniProt P48059),-0.114
